Source: article doi:10.1101/551549
These are yes or no findings as the source states them, for the method shown.

Target: Can f 6 (dog) (UniProt H2B3G5)
Assay: SEC

B1: Can f 6 (protein, UniProt H2B3G5 16-190)
chain: HEEENDVVKGNFDISKISGDWYSILLASDIKEKIEENGSMRVFVKDIEVLSNSSLIFTMHTKVNGKCTKISLICNKTEKDGEYDVVHDGYNLFRIIETAYEDYIIFHLNNVNQEQEFQLMELYGRKPDVSPKVKEKFVRYCQGMEIPKENILDLTQVDRCLQARQSEAAQVSSAE
**Q.** For B1, which binding is on record?
**A.** no binding
